Results as given in patent publication US8133474B2, “Sensors for fluorescence and magnetic resonance imaging” (Massachusetts Institute of Technology, priority 2006, dated 2012).

Columns and labels:
[1] = Zinc fluorescence titration, quantum yield and apparent Kd in buffered solution; type: binding
[2] = Zinc-dependent MR relaxivity in buffered solutions; type: physicochemical; conditions: 25 mM Pipes buffer pH 7.0, 4.7 T
Protocol: MRI samples prepared as described above were arrayed into microtiter plates and placed in a 40-cm-bore Avance 4.7 T MRI scanner (Bruker, Billerica, Mass.). Unused wells were filled with PBS, and imaging was performed on a 2-mm slice through the sample. A spin echo pulse sequence with multiecho acquisition was used. The TR was fixed for every acquisition, and the TE was in defined increments. For example, for TR=100 ms, TE varied from 10 to 80 ms, with a 10-ms increment. To adjust further the weight between T1 and T2, various TRs were applied and the TE increment was changed accordingly, if necessary. Data matrices of 512×128 points were acquired and zero-filled to 256 points in the second (phase encoding) dimension. Images were reconstructed and analyzed by using custom routines running in Matlab (Mathworks, Natick, Mass.).
Insertion of a paramagnetic manganese(III) ion into the porphyrin core of compound 1 rendered the resulting (DPA-C2)2-TPPS3Mn(III) complex (compound 2) an MRI contrast agent. […] In some experiments, the repetition times (TRs) were varied so that both T1 and T2 could be evaluated. […]
The zinc-dependent MR relaxivity of compound 2 was first investigated in buffered solutions. […] The T1 values of zinc-free and zinc-saturated solutions were determined at various concentrations of compound 2, from which T1 relaxivity (R1) values could be deduced. […]

| Compound | quantum yield, absence of zinc ([1]; zinc-free, 5 mM solution of 1 in 50 mM Hepes buffer (pH 7.0), 100 mM KCl, TPPS4 as reference) | quantum yield of zinc-saturated form relative to zinc-free form ([1]; zinc-saturated vs zinc-free) [times] | quantum yield, zinc-saturated form ([1]; zinc-saturated, 50 mM Hepes (pH 7.0), 100 mM KCl) | T1 relaxivity (R1), zinc-free form ([2]; zinc-free) [mM⁻¹ s⁻¹] | T1 relaxivity (R1), zinc complex ([2]; zinc-saturated) [mM⁻¹ s⁻¹] |
| --- | --- | --- | --- | --- | --- |
| O=S(=O)(O)c1ccc(-c2c3nc(c(-c4ccc(S(=O)(=O)O)cc4)c4ccc([nH]4)c(-c4c(NCCN(Cc5ccccn5)Cc5ccccn5)cccc4NCCN(Cc4ccccn4)Cc4ccccn4)c4nc(c(-c5ccc(S(=O)(=O)O)cc5)c5ccc2[nH]5)C=C4)C=C3)cc1 [compound 1, (DPA-C2)2-TPPS3] | 0.004 | > 10 | 0.046 | – | – |
| (DPA-C2)2-Mn(III)TPPS3 [compound 2] | – | – | – | 8.7 | 6.65 |
